The record followed here is publication PMC11200088.

Chains of the proteins cited; added tags and fusions are not shown. Residues count along the entry.
UniProt P22626: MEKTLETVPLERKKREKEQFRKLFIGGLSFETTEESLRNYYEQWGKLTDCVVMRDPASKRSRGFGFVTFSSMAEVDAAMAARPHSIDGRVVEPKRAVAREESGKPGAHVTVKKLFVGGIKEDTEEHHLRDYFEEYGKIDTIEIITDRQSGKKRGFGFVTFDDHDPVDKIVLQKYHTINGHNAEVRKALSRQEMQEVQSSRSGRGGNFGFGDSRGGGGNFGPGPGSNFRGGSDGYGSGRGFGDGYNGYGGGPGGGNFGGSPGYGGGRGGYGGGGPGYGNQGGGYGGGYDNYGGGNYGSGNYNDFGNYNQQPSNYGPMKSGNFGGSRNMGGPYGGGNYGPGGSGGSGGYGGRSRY
UniProt P05161, residues 1-157: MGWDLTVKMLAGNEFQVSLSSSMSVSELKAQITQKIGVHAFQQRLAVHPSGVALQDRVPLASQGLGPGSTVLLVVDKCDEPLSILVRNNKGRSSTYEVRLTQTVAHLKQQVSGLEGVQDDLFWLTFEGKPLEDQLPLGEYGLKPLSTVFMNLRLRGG

Results are given in words; binding and its absence hold for the method and conditions named. In cells and extracts the contact can be indirect. Some results given as binding are weak or reduced against the parent protein; the word gives no strength.

In this assay the target is heterogeneous nuclear ribonucleoprotein A2/B1 (hnRNPA2B1) (human (endogenous in breast cancer cell lines)) (UniProt P22626). As to the kind of experiment: co-IP; endogenous proteins in lysates of hypoxic (1% O2) breast cancer cells; antibodies and Protein A/G beads overnight at 4 °C, Western blot; lysis buffer S (20 mM sodium phosphate pH 7.4, 150 mM NaCl, 1% SDS, 1% Triton, 0.5% sodium deoxycholate), boiled 10 min; for ISG15 with hnRNPA2B1 also after ectopic PCAT6 expression (more binding) or PCAT6 knock-down (less binding). In general terms: A western blot detects proteins with antibodies after separation by electrophoresis.

As for “interferon-stimulated gene 15 (ISG15) (from UniProt P05161 1-157)”, the binding result is on record as “binds”.
